We go through three molecules from patent US20200392251A1.

Test [1] addresses human MMP-12 catalytic domain mutant D4 (cdMMP-12 D4) (human). Put plainly: ELISA and bio-layer interferometry. (ELISA stands for enzyme-linked immunosorbent assay.)
The target is the same in test [2]. Put plainly: ELISA, bio-layer interferometry and competitive ELISA.

These are yes or no findings as the source states them, for the method shown. A result given as binding can be weak or reduced; the word gives no strength.

B1: anti-MMP-12 Fab LH6 (Fab, V domains shown)
VH: EVQLVESGGGLVQPGGSLRLSCAASGFNLSYSYMHWVRQAPGKGLEWVASIYPSYGSTYYADSVKGRFTISADTSKNTAYLQMNSLRAEDTAVYYCARDLEESLPKRARTAVSKELESVPYVMDYWGQGTLVTVSS
VL: DIQMTQSPSSLSASVGDRVTITCRASQSVSSAVAWYQQKPGKAPKLLIYSASSLYSGVPSRFSGSRSGTDFTLTISSLQPEDFATYYCQQSSHYASPPITFGQGTKVEIKR
In the case of B1, the binding result in test [1] and in test [2] was “binds” each time.

B2: anti-MMP-12 Fab LG4 (Fab, V domains shown)
VH: EVQLVESGGGLVQPGGSLRLSCAASGFNLYYSYMHWVRQAPGKGLEWVASISSYYGYTSYADSVKGRFTISADTSKNTAYLQMNSLRAEDTAVYYCARSPIVYYELFMFIDMGAQGWKYGMDYWGQGTLVTVSS
VL: DIQMTQSPSSLSASVGDRVTITCRASQSVSSAVAWYQQKPGKAPKLLIYSASSLYSGVPSRFSGSRSGTDFTLTISSLQPEDFATYYCQQTFYPFTFGQGTKVEIKR
B2: the binding result in test [2] was “binds”.

B3: anti-MMP-12 Fab LH11 (Fab, V domains shown)
VH: EVQLVESGGGLVQPGGSLRLSCAASGFNLSYYSMHWVRQAPGKGLEWVAYIYPYYGSTYYADSVKGRFTISADTSKNTAYLQMNSLRAEDTAVYYCARFLLSIGKLFVGDGSILHVWL
VL: DIQMTQSPSSLSASVGDRVTITCRASQSVSSAVAWYQQKPGKAPKLLIYSASSLYSGVPSRFSGSRSGTDFTLTISSLQPEDFATYYCQQAYYGYLFTFGQGTKVEIKR
As to B3, the binding result in test [2] was “binds”.
